These are yes or no findings as the source states them, for the method shown. In cells and extracts the contact can be indirect. Some binding calls cover weakened binding; strength is not graded here. Where a sequence is shown, tags or fusion partners need not be part of it.
T1: His-GST-RsbS (Bacillus subtilis strain 168) (UniProt P42410)
T1 sequence: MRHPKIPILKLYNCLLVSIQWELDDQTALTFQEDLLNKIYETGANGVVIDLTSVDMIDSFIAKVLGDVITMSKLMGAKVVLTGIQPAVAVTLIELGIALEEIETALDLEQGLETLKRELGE


Target: T1, His-GST-RsbS (Bacillus subtilis strain 168)
Assay: pull-down; clarified E. coli lysates with His-GST-RsbS and with RsbRA (native or mutant) mixed, loaded onto GST Sepharose, washed with 20 mM HEPES pH 7.5, 0.2 M NaCl, 5% glycerol; eluted with SDS sample buffer, SDS-PAGE

Binder | binding
RsbRA Q236A (protein, UniProt P42409 1-274) MMSNQTVYQFIAENQNELLQLWTDTLKELSEQESYQLTDQVYENISKEYIDILLLSVKDENAAESQISELALRAVQIGLSMKFLATALAEFWKRLYTKMNDKRLPDQESTELIWQIDRFFSPINTEIFNQYSISWEKTVSLQKIALQELSAPLIPVFENITVMPLVGTIDTERAKRIMENLLNGVVKHRSQVVLIDITGVPVVDTMVAHHIIQASEAVRLVGAKCLLAGIRPEIAATIVNLGIDLSQVITKNTLQKGIQTALEMTDRKIVSLGE | binds
RsbRA N252A (protein, UniProt P42409 1-274) MMSNQTVYQFIAENQNELLQLWTDTLKELSEQESYQLTDQVYENISKEYIDILLLSVKDENAAESQISELALRAVQIGLSMKFLATALAEFWKRLYTKMNDKRLPDQESTELIWQIDRFFSPINTEIFNQYSISWEKTVSLQKIALQELSAPLIPVFENITVMPLVGTIDTERAKRIMENLLNGVVKHRSQVVLIDITGVPVVDTMVAHHIIQASEAVRLVGAKCLLAGIRPEIAQTIVNLGIDLSQVITKATLQKGIQTALEMTDRKIVSLGE | binds

More lines, now with the values ahead:

binding | Binder
binds | RsbRA (Bacillus subtilis), full length, residues 1-274, native (pET-22b), of the RsbRA-RsbS complex (natural protein, Bacillus subtilis strain 168, UniProt P42409 1-274, looked up, RsbRA, Bacillus subtilis strain 168 (ATCC 23857), full length, residues 1-274; N-terminal nonheme globin domain and C-terminal STAS domain; also called native RsbRA; source: E. coli BL21 Star (DE3), co-purified with 6xHis-thioredoxin-RsbS (IMAC, TEV cleavage, SEC)) MMSNQTVYQFIAENQNELLQLWTDTLKELSEQESYQLTDQVYENISKEYIDILLLSVKDENAAESQISELALRAVQIGLSMKFLATALAEFWKRLYTKMNDKRLPDQESTELIWQIDRFFSPINTEIFNQYSISWEKTVSLQKIALQELSAPLIPVFENITVMPLVGTIDTERAKRIMENLLNGVVKHRSQVVLIDITGVPVVDTMVAHHIIQASEAVRLVGAKCLLAGIRPEIAQTIVNLGIDLSQVITKNTLQKGIQTALEMTDRKIVSLGE
binds | RsbRA Q236A/N252A (protein, UniProt P42409 1-274) MMSNQTVYQFIAENQNELLQLWTDTLKELSEQESYQLTDQVYENISKEYIDILLLSVKDENAAESQISELALRAVQIGLSMKFLATALAEFWKRLYTKMNDKRLPDQESTELIWQIDRFFSPINTEIFNQYSISWEKTVSLQKIALQELSAPLIPVFENITVMPLVGTIDTERAKRIMENLLNGVVKHRSQVVLIDITGVPVVDTMVAHHIIQASEAVRLVGAKCLLAGIRPEIAATIVNLGIDLSQVITKATLQKGIQTALEMTDRKIVSLGE
